Test in all cases: EMSA
For orientation: In EMSA bound probe runs differently from free probe, usually more slowly.

Data set [1] has as its target T1, ELK1 (human) (UniProt P19419).
T1 sequence (looked up): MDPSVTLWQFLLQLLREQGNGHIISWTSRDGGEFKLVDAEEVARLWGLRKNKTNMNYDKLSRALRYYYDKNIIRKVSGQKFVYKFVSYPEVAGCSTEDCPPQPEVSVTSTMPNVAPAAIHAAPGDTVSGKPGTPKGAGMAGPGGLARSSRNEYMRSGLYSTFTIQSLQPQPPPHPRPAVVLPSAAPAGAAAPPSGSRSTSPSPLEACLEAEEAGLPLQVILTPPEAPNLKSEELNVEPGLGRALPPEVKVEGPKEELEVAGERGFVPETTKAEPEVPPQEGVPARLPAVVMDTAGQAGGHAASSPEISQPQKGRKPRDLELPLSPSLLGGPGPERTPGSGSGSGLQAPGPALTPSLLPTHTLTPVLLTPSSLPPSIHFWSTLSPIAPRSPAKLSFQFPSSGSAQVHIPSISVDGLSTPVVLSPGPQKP
The note with it: EMSA conditions not printed (as previously described, ref 5); protein stock in 10 mM Tris pH 7.9, 0.5 mM EDTA, 200 mM KCl, 1 mM DTT, 10% glycerol; recombinant protein; residues 1-428; protein details: N-term 6xHis.

Data set [2] deals with T2, ERF (human) (UniProt P50548).
T2 sequence (looked up): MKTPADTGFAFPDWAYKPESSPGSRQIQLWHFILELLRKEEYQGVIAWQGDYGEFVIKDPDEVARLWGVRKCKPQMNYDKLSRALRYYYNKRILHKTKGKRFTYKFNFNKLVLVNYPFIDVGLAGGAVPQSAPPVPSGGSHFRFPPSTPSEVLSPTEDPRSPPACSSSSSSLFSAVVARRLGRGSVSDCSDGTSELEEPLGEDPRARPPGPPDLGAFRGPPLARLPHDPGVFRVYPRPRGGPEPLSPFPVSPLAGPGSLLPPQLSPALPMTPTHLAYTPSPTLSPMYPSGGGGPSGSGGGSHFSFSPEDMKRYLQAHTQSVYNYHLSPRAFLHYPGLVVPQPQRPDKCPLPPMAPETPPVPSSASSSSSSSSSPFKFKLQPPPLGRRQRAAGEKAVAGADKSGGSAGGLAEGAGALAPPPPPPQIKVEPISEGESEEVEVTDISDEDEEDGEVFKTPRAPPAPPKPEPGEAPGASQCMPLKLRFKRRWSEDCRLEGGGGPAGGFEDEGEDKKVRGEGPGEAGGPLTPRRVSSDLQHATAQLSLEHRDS
The note with it: EMSA conditions not printed (as previously described, ref 5); protein stock in 10 mM Tris pH 7.9, 0.5 mM EDTA, 200 mM KCl, 1 mM DTT, 10% glycerol; recombinant protein; residues 1-548; protein details: N-term 6xHis.

Data set [3] addresses T3, ETV6 A93D (human) (UniProt P41212).
T3 sequence (looked up): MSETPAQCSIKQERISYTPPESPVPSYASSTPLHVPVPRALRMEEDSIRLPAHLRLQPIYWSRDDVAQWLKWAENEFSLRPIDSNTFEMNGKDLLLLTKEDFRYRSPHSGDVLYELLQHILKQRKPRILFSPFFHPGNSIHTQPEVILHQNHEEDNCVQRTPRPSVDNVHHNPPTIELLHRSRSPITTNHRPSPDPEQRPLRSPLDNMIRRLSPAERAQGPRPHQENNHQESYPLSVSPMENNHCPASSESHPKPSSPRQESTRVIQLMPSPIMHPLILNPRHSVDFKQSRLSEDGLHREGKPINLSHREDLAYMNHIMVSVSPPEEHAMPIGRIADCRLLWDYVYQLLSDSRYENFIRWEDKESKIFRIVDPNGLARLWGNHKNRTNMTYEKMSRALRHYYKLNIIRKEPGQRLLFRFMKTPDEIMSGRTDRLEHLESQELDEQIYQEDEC
The note with it: low affinity, likely autoinhibition; EMSA conditions not printed (as previously described, ref 5); protein stock in 10 mM Tris pH 7.9, 0.5 mM EDTA, 200 mM KCl, 1 mM DTT, 10% glycerol; recombinant protein; residues 1-452; protein details: N-term 6xHis.

The target of data set [4] is T4, GABPA (human) (UniProt Q06546).
T4 sequence (looked up): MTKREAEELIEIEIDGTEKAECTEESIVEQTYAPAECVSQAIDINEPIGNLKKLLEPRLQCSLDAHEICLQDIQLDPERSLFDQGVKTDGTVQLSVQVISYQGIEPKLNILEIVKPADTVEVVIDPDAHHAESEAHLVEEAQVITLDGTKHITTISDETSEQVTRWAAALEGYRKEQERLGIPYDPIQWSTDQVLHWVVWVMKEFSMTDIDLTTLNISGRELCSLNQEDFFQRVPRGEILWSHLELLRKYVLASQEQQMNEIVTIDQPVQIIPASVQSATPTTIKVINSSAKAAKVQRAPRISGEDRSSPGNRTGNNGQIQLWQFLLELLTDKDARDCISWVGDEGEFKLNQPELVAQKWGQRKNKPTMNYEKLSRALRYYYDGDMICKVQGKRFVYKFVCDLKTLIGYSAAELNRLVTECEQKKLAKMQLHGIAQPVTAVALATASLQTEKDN
The note with it: EMSA conditions not printed (as previously described, ref 5); protein stock in 10 mM Tris pH 7.9, 0.5 mM EDTA, 200 mM KCl, 1 mM DTT, 10% glycerol; recombinant protein; residues 1-454; protein details: N-term 6xHis.

The test system of data set [5] is SPI1 (human). The following applies: EMSA conditions not printed (as previously described, ref 5); protein stock in 10 mM Tris pH 7.9, 0.5 mM EDTA, 200 mM KCl, 1 mM DTT, 10% glycerol; recombinant protein; residues 1-271; protein details: N-term 6xHis.

For at least one entry, the source does not settle the construct or the ends of the probe. For some assays here: Weaker means in comparison with the reference protein, sequence or condition of that experiment. For some assays here: Where a protein sequence is shown, tags need not be part of it. For some assays here: At least one verdict was read from the data and is not stated in words by the source.

For the sequence “GCCACGGCCCAGGAAGTGACTCACCCACCCTGATG (double strand) [ETS consensus EMSA probe]”, the binding result in data set [1] was “binds”; in data set [2], “binds”; in data set [3] it was “binds more weakly”; in data set [4] it was “binds”; in data set [5], “binds”.

The values above are taken from publication PMC4338625.
